These results are taken from paper PMC12155415.

Chains of the proteins cited; added tags and fusions are not shown.
UniProt Q92598: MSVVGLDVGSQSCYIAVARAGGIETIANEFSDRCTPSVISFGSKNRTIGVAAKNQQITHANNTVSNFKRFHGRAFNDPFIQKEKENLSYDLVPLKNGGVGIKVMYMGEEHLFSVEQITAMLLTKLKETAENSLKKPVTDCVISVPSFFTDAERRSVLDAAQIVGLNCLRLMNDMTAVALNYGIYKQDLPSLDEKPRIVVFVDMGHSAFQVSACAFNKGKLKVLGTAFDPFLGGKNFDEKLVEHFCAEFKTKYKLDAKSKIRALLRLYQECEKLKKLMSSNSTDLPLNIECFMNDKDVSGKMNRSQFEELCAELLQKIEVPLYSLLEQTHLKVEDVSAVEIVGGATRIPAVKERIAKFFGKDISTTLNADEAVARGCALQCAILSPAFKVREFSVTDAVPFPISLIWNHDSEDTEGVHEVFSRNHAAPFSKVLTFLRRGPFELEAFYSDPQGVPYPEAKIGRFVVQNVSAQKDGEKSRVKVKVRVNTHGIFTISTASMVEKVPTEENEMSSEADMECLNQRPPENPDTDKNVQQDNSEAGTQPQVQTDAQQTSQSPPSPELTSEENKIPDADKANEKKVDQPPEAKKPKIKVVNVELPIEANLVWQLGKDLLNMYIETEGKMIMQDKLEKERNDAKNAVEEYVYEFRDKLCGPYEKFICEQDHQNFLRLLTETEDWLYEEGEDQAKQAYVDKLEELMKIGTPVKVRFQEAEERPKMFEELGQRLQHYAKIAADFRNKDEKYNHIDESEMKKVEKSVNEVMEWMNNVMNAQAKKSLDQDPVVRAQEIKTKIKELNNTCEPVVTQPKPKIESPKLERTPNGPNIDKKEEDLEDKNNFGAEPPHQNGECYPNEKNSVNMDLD
UniProt Q9NRL2: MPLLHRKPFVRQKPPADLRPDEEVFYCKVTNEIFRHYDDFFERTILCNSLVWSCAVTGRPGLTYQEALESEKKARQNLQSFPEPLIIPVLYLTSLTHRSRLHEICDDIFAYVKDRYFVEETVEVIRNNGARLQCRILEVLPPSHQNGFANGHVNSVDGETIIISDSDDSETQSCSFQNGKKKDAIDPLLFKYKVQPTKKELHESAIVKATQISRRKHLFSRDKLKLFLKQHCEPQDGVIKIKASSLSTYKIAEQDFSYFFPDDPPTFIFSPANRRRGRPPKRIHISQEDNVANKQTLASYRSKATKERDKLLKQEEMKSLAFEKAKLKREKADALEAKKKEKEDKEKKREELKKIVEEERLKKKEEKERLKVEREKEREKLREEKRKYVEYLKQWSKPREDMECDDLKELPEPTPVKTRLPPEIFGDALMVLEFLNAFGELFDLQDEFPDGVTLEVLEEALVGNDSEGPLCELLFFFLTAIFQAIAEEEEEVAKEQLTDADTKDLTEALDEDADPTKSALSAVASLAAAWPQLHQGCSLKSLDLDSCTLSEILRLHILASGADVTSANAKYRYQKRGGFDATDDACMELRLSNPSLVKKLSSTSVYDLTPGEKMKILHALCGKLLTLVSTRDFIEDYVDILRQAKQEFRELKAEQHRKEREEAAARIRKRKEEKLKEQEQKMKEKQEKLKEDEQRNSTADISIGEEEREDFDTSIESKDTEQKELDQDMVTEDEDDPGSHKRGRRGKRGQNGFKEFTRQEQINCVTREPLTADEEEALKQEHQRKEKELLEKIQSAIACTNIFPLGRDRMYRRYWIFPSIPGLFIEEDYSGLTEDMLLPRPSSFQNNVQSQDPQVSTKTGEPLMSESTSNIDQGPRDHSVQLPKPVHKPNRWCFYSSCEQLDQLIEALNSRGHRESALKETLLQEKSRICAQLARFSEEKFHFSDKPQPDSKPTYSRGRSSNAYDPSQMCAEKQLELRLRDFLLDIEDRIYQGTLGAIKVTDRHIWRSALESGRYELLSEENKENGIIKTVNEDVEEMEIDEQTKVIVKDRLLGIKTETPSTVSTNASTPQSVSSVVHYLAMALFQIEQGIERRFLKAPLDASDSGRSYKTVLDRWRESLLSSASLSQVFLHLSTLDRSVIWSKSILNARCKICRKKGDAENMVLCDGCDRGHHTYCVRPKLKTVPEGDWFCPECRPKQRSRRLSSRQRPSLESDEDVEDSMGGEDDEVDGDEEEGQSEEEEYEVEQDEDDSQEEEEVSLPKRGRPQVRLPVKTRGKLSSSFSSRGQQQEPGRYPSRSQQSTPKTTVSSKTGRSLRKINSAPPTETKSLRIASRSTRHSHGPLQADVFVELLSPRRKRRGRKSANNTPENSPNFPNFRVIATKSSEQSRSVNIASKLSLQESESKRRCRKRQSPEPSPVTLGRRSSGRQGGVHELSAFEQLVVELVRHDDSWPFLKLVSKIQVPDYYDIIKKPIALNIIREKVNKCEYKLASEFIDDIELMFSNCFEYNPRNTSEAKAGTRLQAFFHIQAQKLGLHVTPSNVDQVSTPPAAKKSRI
UniProt O43150: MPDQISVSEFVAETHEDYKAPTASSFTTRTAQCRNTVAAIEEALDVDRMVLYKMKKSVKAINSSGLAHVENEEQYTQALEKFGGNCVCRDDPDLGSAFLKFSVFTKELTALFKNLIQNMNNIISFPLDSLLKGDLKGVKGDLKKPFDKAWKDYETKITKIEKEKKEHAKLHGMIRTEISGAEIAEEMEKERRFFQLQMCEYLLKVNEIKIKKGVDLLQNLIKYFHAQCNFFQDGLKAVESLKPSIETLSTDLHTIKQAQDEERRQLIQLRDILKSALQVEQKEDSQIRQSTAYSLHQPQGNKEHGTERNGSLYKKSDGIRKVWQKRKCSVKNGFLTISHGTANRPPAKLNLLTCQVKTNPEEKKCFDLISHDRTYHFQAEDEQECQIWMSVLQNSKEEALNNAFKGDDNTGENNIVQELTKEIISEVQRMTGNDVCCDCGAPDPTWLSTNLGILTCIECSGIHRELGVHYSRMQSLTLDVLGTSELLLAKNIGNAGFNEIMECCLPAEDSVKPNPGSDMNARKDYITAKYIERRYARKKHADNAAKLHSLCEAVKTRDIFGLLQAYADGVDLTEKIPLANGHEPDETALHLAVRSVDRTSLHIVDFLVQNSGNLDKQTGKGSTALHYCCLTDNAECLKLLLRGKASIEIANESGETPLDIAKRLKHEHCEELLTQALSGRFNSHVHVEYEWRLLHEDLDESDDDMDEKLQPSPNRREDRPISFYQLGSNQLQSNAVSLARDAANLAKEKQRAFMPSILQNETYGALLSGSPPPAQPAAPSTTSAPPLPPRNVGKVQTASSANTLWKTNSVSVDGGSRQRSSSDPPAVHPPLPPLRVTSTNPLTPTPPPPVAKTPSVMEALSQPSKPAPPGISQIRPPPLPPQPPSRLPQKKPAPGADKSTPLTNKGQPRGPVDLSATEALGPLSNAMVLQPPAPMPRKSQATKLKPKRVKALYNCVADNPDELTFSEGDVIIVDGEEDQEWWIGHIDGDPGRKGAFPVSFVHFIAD
UniProt Q03113: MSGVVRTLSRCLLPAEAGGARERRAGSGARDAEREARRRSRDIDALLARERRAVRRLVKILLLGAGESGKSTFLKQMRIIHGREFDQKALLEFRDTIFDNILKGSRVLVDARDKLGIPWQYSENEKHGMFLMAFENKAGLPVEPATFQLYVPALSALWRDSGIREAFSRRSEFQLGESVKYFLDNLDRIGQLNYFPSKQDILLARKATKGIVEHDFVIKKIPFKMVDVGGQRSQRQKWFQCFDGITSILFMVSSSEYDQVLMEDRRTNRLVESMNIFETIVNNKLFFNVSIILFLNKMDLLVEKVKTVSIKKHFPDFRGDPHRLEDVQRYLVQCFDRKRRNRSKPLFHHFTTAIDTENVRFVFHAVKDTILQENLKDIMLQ
UniProt P06748: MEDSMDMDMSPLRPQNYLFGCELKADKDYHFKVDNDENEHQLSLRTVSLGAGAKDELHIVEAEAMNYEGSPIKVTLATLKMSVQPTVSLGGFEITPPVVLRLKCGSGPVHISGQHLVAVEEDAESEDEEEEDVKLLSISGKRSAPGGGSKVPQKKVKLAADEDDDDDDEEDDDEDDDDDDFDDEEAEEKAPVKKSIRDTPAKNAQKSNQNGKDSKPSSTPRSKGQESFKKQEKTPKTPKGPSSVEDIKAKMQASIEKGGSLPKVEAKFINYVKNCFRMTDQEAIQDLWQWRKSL
UniProt Q86U86: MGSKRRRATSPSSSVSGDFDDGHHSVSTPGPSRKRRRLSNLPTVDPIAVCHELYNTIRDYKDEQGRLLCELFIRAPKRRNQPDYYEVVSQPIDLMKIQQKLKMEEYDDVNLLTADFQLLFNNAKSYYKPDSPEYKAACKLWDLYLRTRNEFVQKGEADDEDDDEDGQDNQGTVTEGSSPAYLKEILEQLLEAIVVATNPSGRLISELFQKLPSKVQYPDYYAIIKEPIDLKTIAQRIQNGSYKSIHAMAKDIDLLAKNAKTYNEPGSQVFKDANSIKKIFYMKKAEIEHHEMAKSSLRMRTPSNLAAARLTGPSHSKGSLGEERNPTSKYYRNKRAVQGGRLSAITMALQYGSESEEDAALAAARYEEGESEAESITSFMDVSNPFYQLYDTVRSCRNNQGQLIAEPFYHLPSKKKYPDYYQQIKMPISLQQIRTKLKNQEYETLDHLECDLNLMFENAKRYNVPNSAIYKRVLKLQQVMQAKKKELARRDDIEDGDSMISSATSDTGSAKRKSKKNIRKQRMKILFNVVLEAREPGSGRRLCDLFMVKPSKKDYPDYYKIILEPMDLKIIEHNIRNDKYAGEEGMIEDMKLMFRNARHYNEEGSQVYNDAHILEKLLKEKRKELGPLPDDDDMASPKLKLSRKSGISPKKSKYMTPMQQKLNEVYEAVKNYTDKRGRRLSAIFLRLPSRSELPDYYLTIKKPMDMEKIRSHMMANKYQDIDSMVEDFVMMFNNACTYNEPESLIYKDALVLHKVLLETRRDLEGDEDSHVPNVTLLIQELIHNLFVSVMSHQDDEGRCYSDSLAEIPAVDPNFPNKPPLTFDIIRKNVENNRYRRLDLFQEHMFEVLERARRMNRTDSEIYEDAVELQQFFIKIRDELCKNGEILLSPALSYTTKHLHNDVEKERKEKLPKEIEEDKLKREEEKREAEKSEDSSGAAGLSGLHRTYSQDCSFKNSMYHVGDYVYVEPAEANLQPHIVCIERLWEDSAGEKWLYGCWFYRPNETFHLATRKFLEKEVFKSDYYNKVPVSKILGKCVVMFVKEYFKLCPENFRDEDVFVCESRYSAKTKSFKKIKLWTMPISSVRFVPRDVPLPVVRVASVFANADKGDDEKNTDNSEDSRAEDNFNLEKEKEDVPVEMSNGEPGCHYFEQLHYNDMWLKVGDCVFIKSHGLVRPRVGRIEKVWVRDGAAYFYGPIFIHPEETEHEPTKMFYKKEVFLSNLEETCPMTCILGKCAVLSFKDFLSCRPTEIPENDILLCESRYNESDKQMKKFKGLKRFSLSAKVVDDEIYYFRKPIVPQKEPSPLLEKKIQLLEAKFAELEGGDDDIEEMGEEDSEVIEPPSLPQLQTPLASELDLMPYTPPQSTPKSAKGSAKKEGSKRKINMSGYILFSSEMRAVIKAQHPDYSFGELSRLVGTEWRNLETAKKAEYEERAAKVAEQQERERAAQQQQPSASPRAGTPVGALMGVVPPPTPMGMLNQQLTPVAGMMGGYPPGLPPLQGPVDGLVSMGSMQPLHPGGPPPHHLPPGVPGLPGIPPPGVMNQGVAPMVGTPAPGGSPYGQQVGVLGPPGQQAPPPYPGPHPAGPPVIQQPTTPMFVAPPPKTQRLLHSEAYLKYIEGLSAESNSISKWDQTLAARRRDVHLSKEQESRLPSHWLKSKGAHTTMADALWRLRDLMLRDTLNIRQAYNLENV
UniProt Q969G3: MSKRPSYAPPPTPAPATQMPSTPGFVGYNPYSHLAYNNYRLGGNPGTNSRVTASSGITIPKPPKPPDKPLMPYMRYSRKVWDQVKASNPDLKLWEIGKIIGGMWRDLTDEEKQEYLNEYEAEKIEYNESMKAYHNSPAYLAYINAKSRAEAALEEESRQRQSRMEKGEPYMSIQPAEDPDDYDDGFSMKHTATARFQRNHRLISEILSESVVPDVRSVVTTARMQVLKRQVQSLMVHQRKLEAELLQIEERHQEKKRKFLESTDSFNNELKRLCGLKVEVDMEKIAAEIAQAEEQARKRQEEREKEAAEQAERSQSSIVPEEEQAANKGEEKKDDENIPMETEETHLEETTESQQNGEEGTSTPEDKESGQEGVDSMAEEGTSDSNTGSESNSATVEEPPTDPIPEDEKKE
UniProt P57721: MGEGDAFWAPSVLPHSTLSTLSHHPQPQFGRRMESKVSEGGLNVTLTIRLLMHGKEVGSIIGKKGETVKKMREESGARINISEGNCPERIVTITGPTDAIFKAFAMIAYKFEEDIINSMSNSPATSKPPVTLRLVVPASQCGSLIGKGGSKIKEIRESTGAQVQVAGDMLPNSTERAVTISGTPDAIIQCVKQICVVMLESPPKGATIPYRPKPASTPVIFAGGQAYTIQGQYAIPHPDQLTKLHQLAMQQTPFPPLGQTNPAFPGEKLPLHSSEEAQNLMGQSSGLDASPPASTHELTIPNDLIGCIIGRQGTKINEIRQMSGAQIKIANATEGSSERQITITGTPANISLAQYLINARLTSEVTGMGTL

For the experiment, the target named is HSP110 (endogenous, SW480 cells) (human (endogenous in SW480)) (UniProt Q92598). Kind of experiment: affinity purification with mass spectrometry; anti-HSP110 antibody (control IgG) with protein A/G agarose on the nuclear-enriched fraction of SW480 cells, untreated or 200 µM TMZ for 48 h; in-gel trypsin digest, ESI-TRAP (LTQ-Orbitrap Elite), Mascot.

These are yes or no findings as the source states them, for the method shown. In cells and extracts the contact can be indirect. These calls come from enrichment with a bait or labelling near it, and not all partners need be listed.

As for ABP1 (from UniProt P11940 1-636), the binding result was “binds”.

On to ACF1/BAZ1A (from UniProt Q9NRL2 1-1556), for which the binding entry is recorded as “binds”.

Turning to ASAP2/PAP (from UniProt O43150 1-1006), the binding entry is recorded as “binds”.

For the molecule “DNA-PKcs/DNPK1 (from UniProt P78527 1-4128)”, the binding entry is recorded as “binds”.

Consider FXR1 (from UniProt P51114 1-621), for which the binding result was “binds”.

As to Gα12 (from UniProt Q03113 1-381), the binding result is listed as “binds”.

Turning to HSP70 (from UniProt P17066 1-643), the binding entry is “binds”.

Turning to KRas (from UniProt P01116 1-189), the binding result is reported as “binds”.

As to “Nucleophosmin (from UniProt P06748 1-294)”, the binding result was “binds”.

For “PBRM1/BAF180 (from UniProt Q86U86 1-1689)”, the binding entry is given as “binds”.

Consider “SMARCB1/SNF5 (from UniProt Q12824 1-385)”, for which the binding entry is reported as “binds”.

In the case of “SMARCC2/BAF170 (endogenous, SW480 cells) (from UniProt Q8TAQ2 1-1214)”, the binding result is listed as “binds”.

In the case of “SMARCE1/BAF57 (from UniProt Q969G3 1-411)”, the binding entry is given as “binds”.

On to hnRNP H (from UniProt P31943 1-449), for which the binding result is “binds”.

Regarding hnRNP K (from UniProt P61978 1-463), the binding entry is given as “binds”.

In the case of αCP3 (from UniProt P57721 1-371), the binding entry is on record as “binds”.

B1: COAA or RNA-BP14 (protein, UniProt Q96PK6 1-669)
chain: MKIFVGNVDGADTTPEELAALFAPYGTVMSCAVMKQFAFVHMRENAGALRAIEALHGHELRPGRALVVEMSRPRPLNTWKIFVGNVSAACTSQELRSLFERRGRVIECDVVKDYAFVHMEKEADAKAAIAQLNGKEVKGKRINVELSTKGQKKGPGLAVQSGDKTKKPGAGDTAFPGTGGFSATFDYQQAFGNSTGGFDGQARQPTPPFFGRDRSPLRRSPPRASYVAPLTAQPATYRAQPSVSLGAAYRAQPSASLGVGYRTQPMTAQAASYRAQPSVSLGAPYRGQLASPSSQSAAASSLGPYGGAQPSASALSSYGGQAAAASSLNSYGAQGSSLASYGNQPSSYGAQAASSYGVRAAASSYNTQGAASSLGSYGAQAASYGAQSAASSLAYGAQAASYNAQPSASYNAQSAPYAAQQAASYSSQPAAYVAQPATAAAYASQPAAYAAQATTPMAGSYGAQPVVQTQLNSYGAQASMGLSGSYGAQSAAAATGSYGAAAAYGAQPSATLAAPYRTQSSASLAASYAAQQHPQAAASYRGQPGNAYDGAGQPSAAYLSMSQGAVANANSTPPPYERTRLSPPRASYDDPYKKAVAMSKRYGSDRRLAELSDYRRLSESQLSFRRSPTKSSLDYRRLPDAHSDYARYSGSYNDYLRAAQMHSGYQRRM
Consider B1, for which the binding entry is reported as “binds”.

B2: hnRNP A0 (protein, UniProt Q13151 1-305)
chain: MENSQLCKLFIGGLNVQTSESGLRGHFEAFGTLTDCVVVVNPQTKRSRCFGFVTYSNVEEADAAMAASPHAVDGNTVELKRAVSREDSARPGAHAKVKKLFVGGLKGDVAEGDLIEHFSQFGTVEKAEIIADKQSGKKRGFGFVYFQNHDAADKAAVVKFHPIQGHRVEVKKAVPKEDIYSGGGGGGSRSSRGGRGGRGRGGGRDQNGLSKGGGGGYNSYGGYGGGGGGGYNAYGGGGGGSSYGGSDYGNGFGGFGSYSQHQSSYGPMKSGGGGGGGGSSWGGRSNSGPYRGGYGGGGGYGGSSF
For B2, the binding result is “binds”.

B3: CFA/TBCA (protein, UniProt O75347 1-108)
chain: MADPRVRQIKIKTGVVKRLVKEKVMYEKEAKQQEEKIEKMRAEDGENYDIKKQAEILQESRMMIPDCQRRLEAAYLDLQRILENEKDLEEAEEYKEARLVLDSVKLEA
Turning to B3, the binding result was “binds”.

B4: hnRNP M (protein, UniProt P52272 1-730)
chain: MAAGVEAAAEVAATEIKMEEESGAPGVPSGNGAPGPKGEGERPAQNEKRKEKNIKRGGNRFEPYANPTKRYRAFITNIPFDVKWQSLKDLVKEKVGEVTYVELLMDAEGKSRGCAVVEFKMEESMKKAAEVLNKHSLSGRPLKVKEDPDGEHARRAMQKVMATTGGMGMGPGGPGMITIPPSILNNPNIPNEIIHALQAGRLGSTVFVANLDYKVGWKKLKEVFSMAGVVVRADILEDKDGKSRGIGTVTFEQSIEAVQAISMFNGQLLFDRPMHVKMDERALPKGDFFPPERPQQLPHGLGGIGMGLGPGGQPIDANHLNKGIGMGNIGPAGMGMEGIGFGINKMGGMEGPFGGGMENMGRFGSGMNMGRINEILSNALKRGEIIAKQGGGGGGGSVPGIERMGPGIDRLGGAGMERMGAGLGHGMDRVGSEIERMGLVMDRMGSVERMGSGIERMGPLGLDHMASSIERMGQTMERIGSGVERMGAGMGFGLERMAAPIDRVGQTIERMGSGVERMGPAIERMGLSMERMVPAGMGAGLERMGPVMDRMATGLERMGANNLERMGLERMGANSLERMGLERMGANSLERMGPAMGPALGAGIERMGLAMGGGGGASFDRAIEMERGNFGGSFAGSFGGAGGHAPGVARKACQIFVRNLPFDFTWKMLKDKFNECGHVLYADIKMENGKSKGCGVVKFESPEVAERACRMMNGMKLSGREIDVRIDRNA
On to B4, for which the binding result is reported as “binds”.
